## Screening data, single-dose tests

By UniProt entry, the sequences of proteins in these tests, tags left out. Residues count along the entry.
UniProt Q4DA54, 1-478: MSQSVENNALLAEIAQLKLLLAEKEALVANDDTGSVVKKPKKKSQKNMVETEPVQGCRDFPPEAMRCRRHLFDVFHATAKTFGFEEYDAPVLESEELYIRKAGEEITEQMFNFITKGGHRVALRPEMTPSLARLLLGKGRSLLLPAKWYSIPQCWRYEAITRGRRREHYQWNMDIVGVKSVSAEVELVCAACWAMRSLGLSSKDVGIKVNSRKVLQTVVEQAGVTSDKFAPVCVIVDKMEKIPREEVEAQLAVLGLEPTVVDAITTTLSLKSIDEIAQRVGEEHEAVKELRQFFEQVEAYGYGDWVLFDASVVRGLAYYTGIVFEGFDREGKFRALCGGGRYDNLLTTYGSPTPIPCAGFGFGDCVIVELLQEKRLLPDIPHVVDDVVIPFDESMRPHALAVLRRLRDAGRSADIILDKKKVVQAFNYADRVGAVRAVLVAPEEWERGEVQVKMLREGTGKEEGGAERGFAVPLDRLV
UniProt P9WNZ1, whole entry: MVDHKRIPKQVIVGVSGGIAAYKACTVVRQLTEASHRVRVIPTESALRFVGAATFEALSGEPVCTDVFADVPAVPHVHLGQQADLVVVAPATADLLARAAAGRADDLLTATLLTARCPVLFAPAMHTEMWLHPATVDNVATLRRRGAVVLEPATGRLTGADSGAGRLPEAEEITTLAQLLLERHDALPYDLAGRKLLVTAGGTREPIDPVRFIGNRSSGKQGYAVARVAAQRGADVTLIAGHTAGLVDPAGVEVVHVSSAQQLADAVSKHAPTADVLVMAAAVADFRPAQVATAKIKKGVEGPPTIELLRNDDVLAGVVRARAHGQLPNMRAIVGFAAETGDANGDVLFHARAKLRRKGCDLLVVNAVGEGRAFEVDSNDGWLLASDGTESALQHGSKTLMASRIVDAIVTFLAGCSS

Data taken from ChEMBL document CHEMBL3988442, “University of Dundee, Small-Polar-MMV Screening Library” (2021).

TcHisRS: 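Enzyme assay of histidyl-tRNA synthetase; the read-out is not stated. Target: Histidine-tRNA ligase, Trypanosoma cruzi CL Brener (UniProt Q4DA54). Concentration: 30 µM. The record gives no direction; compounds that gave an IC50 in retests scored well above the rest, so higher reads as stronger inhibition. Of about 69,000 compounds tested this way, about 31 (0.045%) reached 50% or more in at least one test.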
CoaBC: 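Enzyme assay of CoaBC with a phosphate dye (Biomol Green) read at 650 nm. Target: Coenzyme A biosynthesis protein CoaBC, Mycobacterium tuberculosis (UniProt P9WNZ1). Tested at 30 µM. Direction is inferred from only a few compounds that gave an IC50; most scored high, so higher reads as stronger inhibition. Most strong results did not repeat in a second test. About 67,000 compounds were tested under these conditions; 0.06% (about 40) showed 50% or more at least once.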

Each number is a percent effect as filed. How 0% and 100% were set is not recorded. Most values in the screen are low, and negative values occur. Compounds were drawn at random from those tested, without regard to their results.

Compound: CN(C)c1ncc(-c2cc(C(=O)NCCO)n(CC3CC3)c2)cn1
TcHisRS: 1%
CoaBC: 1.713%

Compound: O=C(c1ccc2c(c1)CCCC2)N1CCCC(n2cncn2)C1 (centres undefined)
TcHisRS: 4.046%
CoaBC: 9.068%

Compound: CC(=O)c1cccc(-n2nc(C(C)=O)c(C(C)=O)c2C)c1
TcHisRS: 2.062%
CoaBC: -1.179%

Compound: CN(C)c1nccc(-c2c[nH][nH]c2=O)n1
TcHisRS: 10.17%
CoaBC: -3.976%

Compound: COc1cccc(CNC(CN2CCN(C)CC2)c2ccccc2)c1 (centres undefined)
TcHisRS: 2.542%
CoaBC: -45.81%

Compound: CNC(=O)c1cccc(CCNc2ccccn2)c1
TcHisRS: 3.03%
CoaBC: 2.269%

Compound: CC(=O)N[C@@H]1CN(Cc2nc3ccccc3[nH]2)C[C@H]1c1ccc(C)o1
TcHisRS: -1.064%
CoaBC: 6.352%

Compound: CCCC(=O)N1CCC(c2cc3n(n2)[C@@H](C(F)(F)F)C[C@@H](C)N3)CC1
TcHisRS: 2.996%
CoaBC: -3.594%

Compound: Cc1nc(CO[C@H]2CN(C(=O)c3cccnc3)[C@@H]3COC[C@H]23)cs1
TcHisRS: -1.031%
CoaBC: 0%

Compound: O=C(NC[C@H]1OC[C@@H](NC2CCC(F)(F)CC2)[C@@H]1O)Nc1ccccc1
TcHisRS: 0%
CoaBC: 10.38%

Compound: FC(F)(F)Cn1nnnc1SCCN1CCCCC1
TcHisRS: -1.149%
CoaBC: -4.4%

Compound: O=C(Nc1ccccc1C(=O)NCCN1CCOCC1)c1ccco1
TcHisRS: -15.48%
CoaBC: 3.808%

Compound: CC(C)Cc1nc(CN2CCC(N3CCN(C)C3=O)CC2)no1
TcHisRS: 9.278%
CoaBC: 4.176%

Compound: NC(=O)c1ccc(CNC(=O)NCc2cc[nH]n2)cc1
TcHisRS: 10.71%
CoaBC: 6.265%

Compound: O=C(N[C@@H]1CN(Cc2cccc3[nH]ccc23)C[C@H]1O)c1cscn1
TcHisRS: 5.495%
CoaBC: 0.4854%

Compound: O=C(CC1CC1)N1CCC2(CC1)CN(c1ncc(F)cn1)CCO2
TcHisRS: 8.163%
CoaBC: 2.596%

Compound: CC(=O)N1CCCN(C(=O)c2cnn(-c3ccccc3Cl)c2)CC1
TcHisRS: 4.871%
CoaBC: 2.857%

Compound: CCOC(=O)N1CCCC2(CCN(Cc3ccccc3C#N)C2)C1 (centres undefined)
TcHisRS: 2.146%
CoaBC: 2.033%

Compound: Cc1cc(NCC2CCCO2)cc(=O)n1C (centres undefined)
TcHisRS: 5.78%
CoaBC: 1.595%

Compound: CN(Cc1n[nH]c2c1CCCC2)c1nc2c(c(=O)[nH]1)CCNCC2
TcHisRS: 5.6%
CoaBC: 10.17%

Compound: CC(C)OCCCNC(=O)CN1CCN(c2nccs2)CC1
TcHisRS: 6.957%
CoaBC: -22.29%

Compound: Cc1cc(CNc2ccnn2C)ccc1-n1cncn1
TcHisRS: 1.685%
CoaBC: 4.225%

Compound: CCOCc1ncn2c1CN(S(=O)(=O)c1ccc(C)cc1)CC2
TcHisRS: 2.97%
CoaBC: 0.4894%

Compound: Cc1noc(CC2CCN(Cc3ccc(CCC(C)(C)O)cc3)CC2)n1
TcHisRS: 3.879%
CoaBC: 3.422%

Compound: Cc1noc(C)c1S(=O)(=O)N1C[C@@H](C(=O)O)[C@H](c2ccccn2)C1
TcHisRS: 2.564%
CoaBC: -2.981%

Compound: c1ccc(OCC2CC2)c(CNC2CCc3ncnn3C2)c1 (centres undefined)
TcHisRS: 4.399%
CoaBC: 1.316%

Compound: COc1ccc(C(CC(=O)O)NC(=O)c2cc(C)on2)cc1 (centres undefined)
TcHisRS: 11.31%
CoaBC: 0.1218%

The last 2 entries again:

| Compound | TcHisRS | CoaBC |
|---|---|---|
| `c1ccc(OCC2CC2)c(CNC2CCc3ncnn3C2)c1` (centres undefined) | 4.399% | 1.316% |
| `COc1ccc(C(CC(=O)O)NC(=O)c2cc(C)on2)cc1` (centres undefined) | 11.31% | 0.1218% |